Results: patent US20250041367A1, “BACTERIOPHAGES AND USE THEREOF FOR THE TREATMENT OR PREVENTION OF INFECTION CAUSED BY E. COLI” (Purdue Research Foundation, priority 2023, published 2025)
For at least one compound, name, drawing or mass did not settle the structure.

System: APEC serotype O2:H4
Assay: Lytic capacity of the six-phage treatment compared with antibiotics (OD600)
Type: cell-based, Escherichia coli
Details: APEC O2:H4, antibiotic at its minimum inhibitory concentration (NARMS), 1-4 hours
Procedure: The six APEC strains were individually inoculated into LB broth and incubated at 37° C. until they reached log-phase growth. Phages were added to the log-phase culture of their APEC host at an MOI of 10, and subsequent bacterial concentrations were determined by measuring the absorbance (OD600) of the culture at 1, 2, 3, and 4 hours post-phage application. One flask containing only bacterial culture was included as a negative control. Additional flasks containing both bacterial cultures and antibiotics (specifically, gentamycin sulfate, kanamycin sulfate, nalidixic acid, or chloramphenicol) at their respective minimum inhibitory concentrations (National Antibiotic Resistance Monitoring System (NARMS) 2019, antibiotics tested by NARMS) were included as positive controls. These lytic capacity experiments were conducted in triplicate for each of the phage types and their respective host APEC strains.

SMILES: NC[C@H]1O[C@H](O[C@H]2[C@H](O)[C@@H](O[C@H]3O[C@H](CO)[C@@H](O)[C@H](N)[C@H]3O)[C@H](N)C[C@@H]2N)[C@H](O)[C@@H](O)[C@@H]1O [kanamycin]
- OD600 readings of antibiotic-treated APEC cultures over time: increased over time
